Literature values, collected in patent US20180185375A1, “COMPOSITIONS AND METHODS FOR THE TREATMENT OF SUBSTANCE USE DISORDERS, ADDICTION, AND PSYCHIATRIC DISORDERS” (EMBERA NEUROTHERAPEUTICS, INC., priority 2015, published 2018).
At least one compound was matched to its structure with a doubt left.

Tested on: cocaine self-administration in rats
Conditions: oxazepam 10 mg/kg, ip

SMILES: O=C1Nc2ccc(Cl)cc2C(c2ccccc2)=NC1O (stereo not shown) [oxazepam]
- effect of the dose alone on cocaine self-administration: ineffective
